From US20100104554A1 come the findings set out here.

The chains behind the UniProt entries cited, without tags or fusion partners. Where a name states a change or a piece, a line headed by the entry shows the natural chain unless it says otherwise.
UniProt P25774: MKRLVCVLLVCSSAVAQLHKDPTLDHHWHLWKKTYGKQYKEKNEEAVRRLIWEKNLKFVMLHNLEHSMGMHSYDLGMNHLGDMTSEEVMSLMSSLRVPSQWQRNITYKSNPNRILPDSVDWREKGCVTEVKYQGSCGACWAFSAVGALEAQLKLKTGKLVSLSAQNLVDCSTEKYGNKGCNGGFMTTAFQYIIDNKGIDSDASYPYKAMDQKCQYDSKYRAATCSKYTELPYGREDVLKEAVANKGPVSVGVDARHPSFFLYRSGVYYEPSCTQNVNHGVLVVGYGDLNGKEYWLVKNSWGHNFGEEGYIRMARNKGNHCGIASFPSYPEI

Results are given in words; binding and its absence hold for the method and conditions named. Some binding calls cover weakened binding; strength is not graded here. Sequences can lack the tags named with a protein.

The target of the test is human cathepsin S (Calbiochem) (human) (UniProt P25774). Briefly: fluorometric enzyme inhibition assay with Cbz-Val-Val-Arg-AMC, progress curves.

B1: recombinant human cathepsin S propeptide (residues 17-113) with N-terminal hexahistidine tag, expressed from pQE30 (peptide)
chain: MRGSHHHHHHGSQLHKDPTLDHHWHLWKKTYGKQYKEKNEEAVRRLIWEKNLKFVMLHNLEHSMGMHSYDLGMNHLGDMTSEEVMSLTSSLRVPSQWQRNITYKSNPNRVDLQPSLIS
As for B1, the binding result is given as “binds”.
